The source of these data is the supplement of paper PMC10338343.

Experiment [1] concerns MILI (PIWIL2) piRISC loaded with L1MC piRNA (26 nt). Put plainly: pre-steady-state target cleavage rate (min^-1); higher = faster piRNA-guided slicing of the target. The following applies: guide: L1MC piRNA 5'p-UAACUAAAUACUAUGCAAGCUGUAGG; auxiliary factor: none (no GTSF1). Summed up: (§1)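 In this Cleave-'n-Seq assay, uncleaved targets were sequenced and normalised to depth and to weakly complementary targets. They came from a transcribed, DNA-blocked target RNA library […] mixed with 1 nM active affinity-purified piRISC carrying one synthetic guide, with or without 500 nM GTSF1 partner protein, in HEPES–potassium acetate buffer at 33 °C for 0–8 or 0–960 min. After three trials were pooled and k3 was capped at 0.0001 min^-1, the pre-steady-state cleavage rate was obtained from a burst-and-steady-state fit.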

The test system of experiment [2] is MIWI (PIWIL1) piRISC loaded with L1MC piRNA (30 nt). The description is as above. The conditions noted are these: guide: L1MC piRNA 5'p-UAACUAAAUACUAUGCAAGCUGUAGGUCCU; auxiliary factor: none (no GTSF1). Summed up:
as §1

Experiment [3] deals with EfPiwi piRISC loaded with L1MC piRNA (26 nt). Put plainly: pre-steady-state target cleavage rate (min^-1); guide: L1MC piRNA 5'p-UAACUAAAUACUAUGCAAGCUGUAGG; MIWI and MILI are mouse PIWI proteins and EfPiwi is from a freshwater sponge; tags in brackets are library labels; higher = faster piRNA-guided slicing of the target. The method, boiled down:
as §1

Where [4] appears, read: auxiliary factor: 500 nM Ephydatia muelleri Gtsf1.
Setting [5] is: auxiliary factor: none (no Gtsf1).

± gives the standard deviation. This is a selection; strong and weak results do not stand in their true shares. Many of these values have a large error. The list shows a part of the results.

As for UCCUGCUACAGCAUGCAUAGUAUUUACAAA, the “pre-steady-state target cleavage rate” value in experiment [1] worked out at 0.000841 ± 0.0082; in experiment [2], 0.000907 ± 0.011; in experiment [3] (setting [4]), 0.00164 ± 0.0038.
Regarding UCCUGGAUCAGCUUCGAUAGUAUUUUCAAA, the “pre-steady-state target cleavage rate” value came out at 0.000463 ± 0.0095 in experiment [1], 0.000689 ± 0.0067 in experiment [2] and 0.000432 ± 0.0085 in experiment [3] (setting [4]).
Taken in the same sequence, the figures for UCCUGGAUGUCGAACGAUUCUAUUUAGUUA were 0.000365 ± 0.0084, 0.000537 ± 0.0096 and 0.000146 ± 0.017.
For UCCUGGUACAGCUUGGAUAGUAUUUUCAAA, the “pre-steady-state target cleavage rate” value in experiment [1] was 0.00214 ± 0.0048; in experiment [2], 0.00123 ± 0.0058; in experiment [3] (setting [4]), 0.000908 ± 0.01.
For the sequence UCCUGGAUGAGCUUGCAUAGUAUAAUGAAA, the “pre-steady-state target cleavage rate” value in experiment [1] stood at 0.00104 ± 0.0066; in experiment [2] it was 0.00347 ± 0.0035; in experiment [3] (setting [4]), 0.000663 ± 0.0062.
Taken in the same sequence, the figures for UCCUGGAUGUCCUUCCAUAGUAUUUUGUUA were 0.000502 ± 0.011, 0.000534 ± 0.011 and 0.000211 ± 0.014.
For the sequence UCCUGGAUGUCCAUGCAUAGUAAUUAGUUA, the “pre-steady-state target cleavage rate” value in experiment [1] came out at 0.00266 ± 0.0032; in experiment [2], 0.0012 ± 0.0063; in experiment [3] (setting [4]), 0.000626 ± 0.0055.
As for UCCUGGAUCAGCUUGCAUAGUAAAAACAAA, the “pre-steady-state target cleavage rate” value is 0.00134 ± 0.0049 in experiment [1], 0.00165 ± 0.0056 in experiment [2] and 0.000182 ± 0.021 in experiment [3] (setting [5]).
For the sequence UCCUCCUACAGCUUGCAUUCUAUUUACAAA, the “pre-steady-state target cleavage rate” value in experiment [1] is 0.000501 ± 0.012; in experiment [2], 0.00069 ± 0.01; in experiment [3] (setting [5]), 0.000153 ± 0.026.
As for UCCUGGAUCAGCUUGCAUAGAUAUUAGUUA, the “pre-steady-state target cleavage rate” value is 0.00158 ± 0.0038 in experiment [1], 0.000945 ± 0.0071 in experiment [2] and 0.000338 ± 0.017 in experiment [3] (setting [5]).
